Paper PMC8233366
No constants are given. Whether binding was seen depends on the method and setting. Binding seen in cells or lysates may run through a third protein. Here binding means that the protein was enriched with, or labelled near, the bait; the list need not be complete. For some assays here: No binding means not detected with the bait. Sequences can lack the tags named with a protein. One block for each binder: values may come before it.

Key:
[1] = target: T1, FLAG-tagged SMG5 WT (human) (UniProt Q9UPR3); assay: affinity purification with mass spectrometry; FLAG-tagged SMG5 WT or 1-853 or FLAG control in WT 293 cells, induced 72 h with doxycycline; FLAG IP, mild wash buffer, elution with FLAG peptide; label-free mass spectrometry
T1 sequence: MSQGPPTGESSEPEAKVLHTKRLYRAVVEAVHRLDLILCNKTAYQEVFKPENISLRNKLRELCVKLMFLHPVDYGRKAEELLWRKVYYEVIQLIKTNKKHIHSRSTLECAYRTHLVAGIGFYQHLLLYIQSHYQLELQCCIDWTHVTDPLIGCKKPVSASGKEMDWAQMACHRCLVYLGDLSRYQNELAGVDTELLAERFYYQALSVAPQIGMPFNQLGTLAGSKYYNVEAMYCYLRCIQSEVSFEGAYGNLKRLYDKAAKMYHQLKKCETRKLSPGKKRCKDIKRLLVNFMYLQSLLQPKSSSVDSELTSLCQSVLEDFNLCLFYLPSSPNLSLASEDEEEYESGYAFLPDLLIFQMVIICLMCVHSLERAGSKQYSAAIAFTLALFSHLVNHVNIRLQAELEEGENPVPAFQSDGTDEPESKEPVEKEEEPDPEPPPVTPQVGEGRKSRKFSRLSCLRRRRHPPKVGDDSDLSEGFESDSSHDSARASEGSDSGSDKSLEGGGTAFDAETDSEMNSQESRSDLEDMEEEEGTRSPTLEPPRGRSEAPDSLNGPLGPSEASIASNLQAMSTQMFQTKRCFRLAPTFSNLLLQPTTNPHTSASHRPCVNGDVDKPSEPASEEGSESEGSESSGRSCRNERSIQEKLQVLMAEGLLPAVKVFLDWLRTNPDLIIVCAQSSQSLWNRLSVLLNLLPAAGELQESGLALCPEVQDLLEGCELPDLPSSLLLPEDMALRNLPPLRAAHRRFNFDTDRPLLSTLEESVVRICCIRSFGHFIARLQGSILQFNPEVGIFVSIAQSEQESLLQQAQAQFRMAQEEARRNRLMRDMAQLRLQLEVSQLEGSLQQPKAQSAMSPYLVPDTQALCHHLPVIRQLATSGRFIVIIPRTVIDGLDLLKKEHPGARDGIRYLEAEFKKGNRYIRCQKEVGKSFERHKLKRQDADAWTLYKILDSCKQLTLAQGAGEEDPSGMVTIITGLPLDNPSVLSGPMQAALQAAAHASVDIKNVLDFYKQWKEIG

[2] = target: T2, FLAG-tagged SMG5 1-853 (human) (UniProt Q9UPR3); assay: as above
T2 sequence: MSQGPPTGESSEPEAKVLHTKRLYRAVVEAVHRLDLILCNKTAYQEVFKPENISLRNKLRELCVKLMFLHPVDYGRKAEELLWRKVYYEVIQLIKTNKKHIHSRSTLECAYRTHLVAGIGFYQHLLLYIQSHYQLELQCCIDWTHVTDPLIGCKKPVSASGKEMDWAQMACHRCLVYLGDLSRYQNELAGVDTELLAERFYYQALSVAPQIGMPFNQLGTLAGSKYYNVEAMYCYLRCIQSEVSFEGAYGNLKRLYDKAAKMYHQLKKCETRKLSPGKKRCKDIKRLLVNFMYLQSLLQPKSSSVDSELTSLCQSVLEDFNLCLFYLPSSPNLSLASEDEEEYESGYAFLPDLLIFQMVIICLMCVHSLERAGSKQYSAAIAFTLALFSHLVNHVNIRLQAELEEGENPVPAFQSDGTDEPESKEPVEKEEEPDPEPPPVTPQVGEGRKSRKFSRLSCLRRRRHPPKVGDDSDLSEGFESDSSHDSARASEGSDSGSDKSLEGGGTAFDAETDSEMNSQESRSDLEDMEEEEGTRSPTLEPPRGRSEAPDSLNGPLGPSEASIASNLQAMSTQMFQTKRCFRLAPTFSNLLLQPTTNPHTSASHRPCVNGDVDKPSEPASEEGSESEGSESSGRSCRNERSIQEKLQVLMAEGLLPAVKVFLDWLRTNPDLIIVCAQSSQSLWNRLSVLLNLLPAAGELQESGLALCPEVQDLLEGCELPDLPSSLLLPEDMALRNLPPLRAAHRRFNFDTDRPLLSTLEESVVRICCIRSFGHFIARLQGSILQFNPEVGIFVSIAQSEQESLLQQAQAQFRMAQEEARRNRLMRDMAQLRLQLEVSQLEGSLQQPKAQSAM

[3] = target: T3, FLAG-tagged SMG5 WT (human), Q9UPR3; assay: as above; conditions: remark: other sources report otherwise
T3 chain: T1 sequence

FLAG-TurboID-UPF1 [4] = target: T4, FLAG-TurboID-UPF1 (UniProt Q92900); assay: proximity labelling; FLAG-TurboID-UPF1 or FLAG-TurboID control in WT and SMG7 KO cells with control or SMG5 KD; 50 µM biotin for 15 min; streptavidin beads; western blot (Fig. 6b)
T4 sequence: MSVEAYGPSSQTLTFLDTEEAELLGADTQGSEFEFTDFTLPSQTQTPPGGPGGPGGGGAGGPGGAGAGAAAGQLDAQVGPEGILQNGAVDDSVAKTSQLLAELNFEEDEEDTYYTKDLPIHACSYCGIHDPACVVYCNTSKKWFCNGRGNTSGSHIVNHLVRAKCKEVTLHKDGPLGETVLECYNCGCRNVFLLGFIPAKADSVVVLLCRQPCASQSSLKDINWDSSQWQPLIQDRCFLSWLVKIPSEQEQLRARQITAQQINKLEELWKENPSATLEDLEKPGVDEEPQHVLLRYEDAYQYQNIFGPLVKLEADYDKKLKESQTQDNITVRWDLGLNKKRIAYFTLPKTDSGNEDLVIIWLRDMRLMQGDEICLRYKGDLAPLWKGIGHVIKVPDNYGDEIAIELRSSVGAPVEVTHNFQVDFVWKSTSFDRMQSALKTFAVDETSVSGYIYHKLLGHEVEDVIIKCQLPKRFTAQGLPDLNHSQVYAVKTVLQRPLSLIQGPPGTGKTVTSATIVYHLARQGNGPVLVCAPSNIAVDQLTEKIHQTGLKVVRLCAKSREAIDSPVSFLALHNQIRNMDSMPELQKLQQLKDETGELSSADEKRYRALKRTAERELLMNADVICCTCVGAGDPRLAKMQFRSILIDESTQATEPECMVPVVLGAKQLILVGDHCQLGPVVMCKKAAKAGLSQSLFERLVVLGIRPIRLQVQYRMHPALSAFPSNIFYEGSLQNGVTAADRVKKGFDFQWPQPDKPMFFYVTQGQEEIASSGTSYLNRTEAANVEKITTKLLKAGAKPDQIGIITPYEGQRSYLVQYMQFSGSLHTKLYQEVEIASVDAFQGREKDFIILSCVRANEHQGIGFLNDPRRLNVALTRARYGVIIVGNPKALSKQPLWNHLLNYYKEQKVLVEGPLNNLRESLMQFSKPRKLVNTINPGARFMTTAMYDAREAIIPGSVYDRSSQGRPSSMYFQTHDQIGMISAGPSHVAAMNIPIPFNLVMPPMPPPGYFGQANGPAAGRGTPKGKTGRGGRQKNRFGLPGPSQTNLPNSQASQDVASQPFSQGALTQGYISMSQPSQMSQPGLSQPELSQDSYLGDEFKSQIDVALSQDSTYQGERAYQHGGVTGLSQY

FLAG-TurboID-UPF1 [5] = target: T4, FLAG-TurboID-UPF1; assay: proximity labelling; FLAG-TurboID-UPF1 against FLAG-TurboID control in WT cells; 50 µM biotin for 15 min; streptavidin beads; label-free mass spectrometry

- binding [1]: binds
- binding [2]: binds
B1: SMG7 (endogenous) (protein, UniProt Q92540 1-1137)
chain: MSLQSAQYLRQAEVLKADMTDSKLGPAEVWTSRQALQDLYQKMLVTDLEYALDKKVEQDLWNHAFKNQITTLQGQAKNRANPNRSEVQANLSLFLEAASGFYTQLLQELCTVFNVDLPCRVKSSQLGIISNKQTHTSAIVKPQSSSCSYICQHCLVHLGDIARYRNQTSQAESYYRHAAQLVPSNGQPYNQLAILASSKGDHLTTIFYYCRSIAVKFPFPAASTNLQKALSKALESRDEVKTKWGVSDFIKAFIKFHGHVYLSKSLEKLSPLREKLEEQFKRLLFQKAFNSQQLVHVTVINLFQLHHLRDFSNETEQHTYSQDEQLCWTQLLALFMSFLGILCKCPLQNESQEESYNAYPLPAVKVSMDWLRLRPRVFQEAVVDERQYIWPWLISLLNSFHPHEEDLSSISATPLPEEFELQGFLALRPSFRNLDFSKGHQGITGDKEGQQRRIRQQRLISIGKWIADNQPRLIQCENEVGKLLFITEIPELILEDPSEAKENLILQETSVIESLAADGSPGLKSVLSTSRNLSNNCDTGEKPVVTFKENIKTREVNRDQGRSFPPKEVRRDYSKGITVTKNDGKKDNNKRKTETKKCTLEKLQETGKQNVAVQVKSQTELRKTPVSEARKTPVTQTPTQASNSQFIPIHHPGAFPPLPSRPGFPPPTYVIPPPVAFSMGSGYTFPAGVSVPGTFLQPTAHSPAGNQVQAGKQSHIPYSQQRPSGPGPMNQGPQQSQPPSQQPLTSLPAQPTAQSTSQLQVQALTQQQQSPTKAVPALGKSPPHHSGFQQYQQADASKQLWNPPQVQGPLGKIMPVKQPYYLQTQDPIKLFEPSLQPPVMQQQPLEKKMKPFPMEPYNHNPSEVKVPEFYWDSSYSMADNRSVMAQQANIDRRGKRSPGVFRPEQDPVPRMPFEKSLLEKPSELMSHSSSFLSLTGFSLNQERYPNNSMFNEVYGKNLTSSSKAELSPSMAPQETSLYSLFEGTPWSPSLPASSDHSTPASQSPHSSNPSSLPSSPPTHNHNSVPFSNFGPIGTPDNRDRRTADRWKTDKPAMGGFGIDYLSATSSSESSWHQASTPSGTWTGHGPSMEDSSAVLMESLKSIWSSSMMHPGPSALEQLLMQQKQKQQRGQGTMNPPH

- binding [3]: no binding
B2: PNRC2 (endogenous), Q9NPJ4 1-139 (protein)
chain: MGGGERYNIPAPQSRNVSKNQQQLNRQKTKEQNSQMKIVHKKKERGHGYNSSAAAWQAMQNGGKNKNFPNNQSWNSSLSGPRLLFKSQANQNYAGAKFSEPPSPSVLPKPPSHWVPVSFNPSDKEIMTFQLKTLLKVQV

- binding (FLAG-TurboID-UPF1 [4]): binds
- binding (FLAG-TurboID-UPF1 [5]): binds
B3: UPF3B (endogenous) (protein, UniProt Q9BZI7 1-483)
chain: MKEEKEHRPKEKRVTLLTPAGATGSGGGTSGDSSKGEDKQDRNKEKKEALSKVVIRRLPPTLTKEQLQEHLQPMPEHDYFEFFSNDTSLYPHMYARAYINFKNQEDIILFRDRFDGYVFLDNKGQEYPAIVEFAPFQKAAKKKTKKRDTKVGTIDDDPEYRKFLESYATDNEKMTSTPETLLEEIEAKNRELIAKKTTPLLSFLKNKQRMREEKREERRRREIERKRQREEERRKWKEEEKRKRKDIEKLKKIDRIPERDKLKDEPKIKVHRFLLQAVNQKNLLKKPEKGDEKELDKREKAKKLDKENLSDERASGQSCTLPKRSDSELKDEKPKRPEDESGRDYREREREYERDQERILRERERLKRQEEERRRQKERYEKEKTFKRKEEEMKKEKDTLRDKGKKAESTESIGSSEKTEKKEEVVKRDRIRNKDRPAMQLYQPGARSRNRLCPPDDSTKSGDSAAERKQESGISHRKEGGEE
